Test results taken from the supplement of paper PMC12067093, “Discovery and optimisation of a covalent ligand for TRIM25 and its application to targeted protein ubiquitination” (Chemical Science, 2025).
The list shows a part of the results.

The chains behind the UniProt entries cited, without tags or fusion partners. Where a name states a change or a piece, a line headed by the entry shows the natural chain unless it says otherwise.
UniProt P05771, whole entry, looked up: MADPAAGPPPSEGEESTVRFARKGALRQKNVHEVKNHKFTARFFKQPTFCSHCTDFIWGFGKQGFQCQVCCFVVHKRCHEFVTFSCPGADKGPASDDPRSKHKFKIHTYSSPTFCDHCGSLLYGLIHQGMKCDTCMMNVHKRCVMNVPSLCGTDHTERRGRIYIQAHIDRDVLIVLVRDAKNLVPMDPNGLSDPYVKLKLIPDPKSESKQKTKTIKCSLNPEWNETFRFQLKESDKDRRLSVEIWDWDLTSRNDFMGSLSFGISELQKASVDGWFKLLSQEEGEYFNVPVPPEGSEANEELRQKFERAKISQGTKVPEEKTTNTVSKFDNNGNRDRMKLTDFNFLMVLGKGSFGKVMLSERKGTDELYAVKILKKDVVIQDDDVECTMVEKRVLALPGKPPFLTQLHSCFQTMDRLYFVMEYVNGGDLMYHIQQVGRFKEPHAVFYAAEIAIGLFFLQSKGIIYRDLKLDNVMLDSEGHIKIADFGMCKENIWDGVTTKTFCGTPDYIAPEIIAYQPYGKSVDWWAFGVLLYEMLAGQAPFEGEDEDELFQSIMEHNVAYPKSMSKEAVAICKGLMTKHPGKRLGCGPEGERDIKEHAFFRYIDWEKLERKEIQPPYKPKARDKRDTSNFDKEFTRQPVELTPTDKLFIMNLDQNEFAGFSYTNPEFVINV
UniProt P78527, whole entry, looked up: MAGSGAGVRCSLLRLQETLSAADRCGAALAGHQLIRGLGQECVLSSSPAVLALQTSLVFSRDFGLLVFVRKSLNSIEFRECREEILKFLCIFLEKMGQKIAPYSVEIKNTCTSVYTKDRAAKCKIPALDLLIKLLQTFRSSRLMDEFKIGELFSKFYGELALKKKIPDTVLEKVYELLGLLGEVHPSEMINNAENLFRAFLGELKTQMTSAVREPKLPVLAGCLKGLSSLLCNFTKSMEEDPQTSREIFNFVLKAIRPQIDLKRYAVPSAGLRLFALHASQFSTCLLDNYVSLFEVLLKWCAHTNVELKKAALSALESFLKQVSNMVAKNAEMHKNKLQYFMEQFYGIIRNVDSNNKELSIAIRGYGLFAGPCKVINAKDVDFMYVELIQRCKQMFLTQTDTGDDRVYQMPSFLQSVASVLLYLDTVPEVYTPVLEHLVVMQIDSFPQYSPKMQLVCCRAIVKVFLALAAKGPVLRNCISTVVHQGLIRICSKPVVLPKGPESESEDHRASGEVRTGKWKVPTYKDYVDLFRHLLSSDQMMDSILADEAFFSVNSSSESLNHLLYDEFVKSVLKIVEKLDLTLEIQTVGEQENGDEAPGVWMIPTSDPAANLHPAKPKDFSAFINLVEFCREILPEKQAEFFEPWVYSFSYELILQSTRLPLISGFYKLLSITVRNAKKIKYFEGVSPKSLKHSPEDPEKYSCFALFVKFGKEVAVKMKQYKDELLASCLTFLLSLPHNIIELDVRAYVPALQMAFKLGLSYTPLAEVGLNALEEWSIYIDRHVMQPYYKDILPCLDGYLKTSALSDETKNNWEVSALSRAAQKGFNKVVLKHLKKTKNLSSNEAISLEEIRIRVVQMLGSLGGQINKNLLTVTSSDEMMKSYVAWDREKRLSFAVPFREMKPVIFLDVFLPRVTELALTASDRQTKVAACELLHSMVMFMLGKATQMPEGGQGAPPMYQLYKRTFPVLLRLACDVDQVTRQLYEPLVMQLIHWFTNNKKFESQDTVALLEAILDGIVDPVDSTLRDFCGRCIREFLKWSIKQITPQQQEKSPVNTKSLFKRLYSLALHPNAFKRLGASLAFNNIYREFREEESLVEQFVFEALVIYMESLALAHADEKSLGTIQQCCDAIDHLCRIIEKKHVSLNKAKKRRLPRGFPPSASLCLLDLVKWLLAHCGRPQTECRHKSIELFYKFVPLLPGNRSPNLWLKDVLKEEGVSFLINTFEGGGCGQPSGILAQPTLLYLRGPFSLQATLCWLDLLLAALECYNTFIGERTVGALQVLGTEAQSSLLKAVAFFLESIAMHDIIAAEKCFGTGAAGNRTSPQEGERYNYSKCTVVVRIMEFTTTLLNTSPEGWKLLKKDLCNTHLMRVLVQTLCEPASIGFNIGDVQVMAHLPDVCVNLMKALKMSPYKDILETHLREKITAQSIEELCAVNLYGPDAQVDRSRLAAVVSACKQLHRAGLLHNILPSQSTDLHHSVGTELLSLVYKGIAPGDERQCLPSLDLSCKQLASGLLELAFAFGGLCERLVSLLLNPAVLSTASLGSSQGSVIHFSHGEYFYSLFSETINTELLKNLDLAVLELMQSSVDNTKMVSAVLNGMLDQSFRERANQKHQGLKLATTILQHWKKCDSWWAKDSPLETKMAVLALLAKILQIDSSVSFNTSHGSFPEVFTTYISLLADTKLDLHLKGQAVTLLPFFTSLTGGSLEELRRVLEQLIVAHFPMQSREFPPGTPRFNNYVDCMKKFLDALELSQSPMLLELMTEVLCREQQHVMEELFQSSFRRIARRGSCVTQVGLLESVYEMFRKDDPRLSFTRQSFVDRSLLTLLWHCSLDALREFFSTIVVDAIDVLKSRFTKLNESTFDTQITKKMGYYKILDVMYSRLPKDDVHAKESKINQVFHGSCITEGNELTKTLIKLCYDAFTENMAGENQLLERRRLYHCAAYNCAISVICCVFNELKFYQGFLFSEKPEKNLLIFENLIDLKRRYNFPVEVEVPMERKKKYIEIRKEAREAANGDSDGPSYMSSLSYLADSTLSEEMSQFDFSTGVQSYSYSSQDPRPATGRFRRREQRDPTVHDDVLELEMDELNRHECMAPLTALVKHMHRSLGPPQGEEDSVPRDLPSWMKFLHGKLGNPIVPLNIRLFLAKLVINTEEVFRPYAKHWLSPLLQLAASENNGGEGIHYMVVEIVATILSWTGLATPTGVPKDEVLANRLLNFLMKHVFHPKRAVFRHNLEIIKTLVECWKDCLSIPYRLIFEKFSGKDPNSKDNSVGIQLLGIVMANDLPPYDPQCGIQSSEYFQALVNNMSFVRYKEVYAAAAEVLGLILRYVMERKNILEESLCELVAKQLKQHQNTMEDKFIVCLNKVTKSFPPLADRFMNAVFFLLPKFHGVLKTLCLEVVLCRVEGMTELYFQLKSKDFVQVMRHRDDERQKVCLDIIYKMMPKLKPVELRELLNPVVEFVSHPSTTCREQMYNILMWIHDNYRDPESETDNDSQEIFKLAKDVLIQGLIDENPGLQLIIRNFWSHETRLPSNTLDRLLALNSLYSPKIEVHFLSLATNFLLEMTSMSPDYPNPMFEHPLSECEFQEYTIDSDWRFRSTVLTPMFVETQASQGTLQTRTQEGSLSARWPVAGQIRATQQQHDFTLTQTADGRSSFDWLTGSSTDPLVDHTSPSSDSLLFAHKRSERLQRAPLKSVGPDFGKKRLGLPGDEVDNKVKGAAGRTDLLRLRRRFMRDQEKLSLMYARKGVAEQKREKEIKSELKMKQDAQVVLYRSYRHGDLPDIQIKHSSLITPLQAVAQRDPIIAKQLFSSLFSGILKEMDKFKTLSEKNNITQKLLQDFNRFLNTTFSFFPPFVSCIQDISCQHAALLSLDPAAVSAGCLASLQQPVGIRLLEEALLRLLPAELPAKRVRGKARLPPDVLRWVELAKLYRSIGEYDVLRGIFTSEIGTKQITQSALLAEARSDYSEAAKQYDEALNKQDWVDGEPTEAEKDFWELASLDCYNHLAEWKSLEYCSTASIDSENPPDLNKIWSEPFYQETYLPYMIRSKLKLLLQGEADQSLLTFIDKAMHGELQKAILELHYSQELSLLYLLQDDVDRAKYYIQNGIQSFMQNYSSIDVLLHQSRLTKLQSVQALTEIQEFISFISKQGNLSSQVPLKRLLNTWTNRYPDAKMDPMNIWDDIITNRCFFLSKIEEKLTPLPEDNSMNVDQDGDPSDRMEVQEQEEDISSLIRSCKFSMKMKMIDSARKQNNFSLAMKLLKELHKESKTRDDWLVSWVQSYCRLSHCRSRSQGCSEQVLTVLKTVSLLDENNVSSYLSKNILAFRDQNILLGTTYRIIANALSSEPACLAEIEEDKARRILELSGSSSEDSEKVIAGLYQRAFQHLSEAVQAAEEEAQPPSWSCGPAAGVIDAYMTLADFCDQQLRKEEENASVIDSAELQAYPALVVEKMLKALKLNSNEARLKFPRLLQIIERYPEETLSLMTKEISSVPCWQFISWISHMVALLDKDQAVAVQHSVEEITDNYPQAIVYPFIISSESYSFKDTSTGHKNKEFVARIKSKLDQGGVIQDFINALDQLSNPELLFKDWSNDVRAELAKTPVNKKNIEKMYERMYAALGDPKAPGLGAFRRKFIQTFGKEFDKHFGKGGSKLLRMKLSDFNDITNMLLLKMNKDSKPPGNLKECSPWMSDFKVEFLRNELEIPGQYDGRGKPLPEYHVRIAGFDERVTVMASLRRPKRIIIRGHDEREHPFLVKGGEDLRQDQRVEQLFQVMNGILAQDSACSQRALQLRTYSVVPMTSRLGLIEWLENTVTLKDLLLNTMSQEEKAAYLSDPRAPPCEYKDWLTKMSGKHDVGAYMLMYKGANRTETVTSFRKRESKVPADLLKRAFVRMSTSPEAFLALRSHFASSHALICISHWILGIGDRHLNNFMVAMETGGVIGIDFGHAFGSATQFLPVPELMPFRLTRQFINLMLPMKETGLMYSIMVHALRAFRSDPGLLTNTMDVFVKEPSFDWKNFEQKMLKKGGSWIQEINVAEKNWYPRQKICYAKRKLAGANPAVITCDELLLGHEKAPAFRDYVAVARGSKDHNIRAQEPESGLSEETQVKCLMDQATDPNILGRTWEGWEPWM
UniProt Q99873, whole entry, looked up: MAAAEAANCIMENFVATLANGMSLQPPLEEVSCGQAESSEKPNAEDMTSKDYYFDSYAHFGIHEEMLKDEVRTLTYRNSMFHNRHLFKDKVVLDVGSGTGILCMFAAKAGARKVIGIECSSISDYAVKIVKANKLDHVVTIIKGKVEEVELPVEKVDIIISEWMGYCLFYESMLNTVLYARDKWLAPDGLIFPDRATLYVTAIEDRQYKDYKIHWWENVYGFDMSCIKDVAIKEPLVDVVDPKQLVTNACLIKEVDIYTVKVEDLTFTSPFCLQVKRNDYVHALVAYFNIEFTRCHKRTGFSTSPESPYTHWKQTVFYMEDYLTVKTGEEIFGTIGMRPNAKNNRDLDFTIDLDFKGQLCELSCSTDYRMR
UniProt Q9BZL6: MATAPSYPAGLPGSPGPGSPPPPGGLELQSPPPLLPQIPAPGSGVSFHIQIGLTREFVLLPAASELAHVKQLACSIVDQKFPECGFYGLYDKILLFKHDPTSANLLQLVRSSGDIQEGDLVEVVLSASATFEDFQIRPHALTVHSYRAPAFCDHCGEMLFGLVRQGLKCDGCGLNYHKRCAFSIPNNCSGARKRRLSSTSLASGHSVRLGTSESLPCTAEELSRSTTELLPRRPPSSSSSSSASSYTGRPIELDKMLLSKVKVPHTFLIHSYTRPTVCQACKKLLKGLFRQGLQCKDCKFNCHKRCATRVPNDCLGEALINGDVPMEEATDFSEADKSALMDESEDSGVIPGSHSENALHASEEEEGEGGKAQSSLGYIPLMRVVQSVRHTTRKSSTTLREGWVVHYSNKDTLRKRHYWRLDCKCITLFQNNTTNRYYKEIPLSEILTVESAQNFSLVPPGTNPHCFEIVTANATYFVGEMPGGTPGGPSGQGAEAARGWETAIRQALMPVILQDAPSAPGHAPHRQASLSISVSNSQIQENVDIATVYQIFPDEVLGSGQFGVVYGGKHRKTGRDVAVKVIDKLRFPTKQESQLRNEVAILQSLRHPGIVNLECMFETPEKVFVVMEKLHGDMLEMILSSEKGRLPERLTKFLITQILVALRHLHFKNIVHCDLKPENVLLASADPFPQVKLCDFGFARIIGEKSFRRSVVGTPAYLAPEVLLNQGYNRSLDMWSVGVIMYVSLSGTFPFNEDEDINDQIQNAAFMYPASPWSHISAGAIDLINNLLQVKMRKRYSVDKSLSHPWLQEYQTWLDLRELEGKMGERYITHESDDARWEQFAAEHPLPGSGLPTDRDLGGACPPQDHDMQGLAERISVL
UniProt P10644, whole entry, looked up: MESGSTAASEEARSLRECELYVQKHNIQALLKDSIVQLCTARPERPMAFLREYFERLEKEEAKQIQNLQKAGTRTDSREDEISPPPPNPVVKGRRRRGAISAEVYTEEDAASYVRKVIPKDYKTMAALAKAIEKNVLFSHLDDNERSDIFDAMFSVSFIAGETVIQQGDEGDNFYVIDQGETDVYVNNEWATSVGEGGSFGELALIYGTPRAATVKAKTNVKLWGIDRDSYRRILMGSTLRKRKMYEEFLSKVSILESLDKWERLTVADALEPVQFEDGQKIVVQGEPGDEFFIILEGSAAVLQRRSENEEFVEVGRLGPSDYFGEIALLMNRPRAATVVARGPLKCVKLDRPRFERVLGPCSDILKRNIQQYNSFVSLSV

Compound: Cc1cc(ccc1-c1ccccc1)C(=O)N1CCCN(CC1)C(=O)CCl [compound 10]
Assay: probe-labelled cysteine peptide fold change vs DMSO (competition) (log2 fold change); higher = less target engagement (more negative = stronger competition)
Conditions: THP-1, incubation time: 4 h
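Further: competitive profiling in live THP-1 cells: cysteine peptides tagged with an iodoacetamide desthiobiotin (IA-DTB) probe, intensity after compound treatment relative to DMSO-treated cells.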

Target	probe-labelled cysteine peptide fold change (10 µM)	probe-labelled cysteine peptide fold change (50 µM)
PRKCD_Q05655_127_VLMSVQYFLEDVDCK (UniProt Q05655)	-0.226	-0.31
PRKCB_P05771_217_CSLNPEWNETFR (UniProt P05771)	-0.0468	-0.192
PRKCI_P41743_157_AHCAICTDR (UniProt P41743)	0.104	0.311
PRKDC_P78527_1312_CFGTGAAGNR (UniProt P78527)	0.132	0.136
PRMT1_Q99873_360+364_GQLCELSCSTDYR (UniProt Q99873)	0.178	-0.84
PRKD3_O94806_204_IPNNCSGVR (UniProt O94806)	0.183	0.308
PRKDC_P78527_1791_GSCVTQVGLLESVYEMFR (UniProt P78527)	-0.0217	0.201
PSMA2_P25787_213_ESFEGQMTEDNIEVGICNEAGFR (UniProt P25787)	-0.0416	0.0586
PRSS12_P56730_739_LQGPEEQCAR (UniProt P56730)	-0.0714	0.044
PRMT9_Q6P2P2_747_VFLDLSSLPCIPLSKPVELLR (UniProt Q6P2P2)	-0.236	0.0688
PRKDC_P78527_3014_SLEYCSTASIDSENPPDLNK (UniProt P78527)	-0.149	0.00293
PSD4_Q8NDX1_933_SHENCLDAAADDLLDLQR (UniProt Q8NDX1)	-0.308	-0.126
PREX1_Q8TCU6_972_QAPLEPHPLCGLDFCPTNCHINLMEVSYPK (UniProt Q8TCU6)	-0.0151	-0.198
PRKD2_Q9BZL6_278_VPHTFLIHSYTRPTVCQACK (UniProt Q9BZL6)	-0.537	-0.15
PRPF4_O43172_431_EIYGINFSPNGYHIATGSGDNTCK (UniProt O43172)	0.0874	0.0595
PRPF8_Q6P2Q9_547_FGNAFHLCR (UniProt Q6P2Q9)	0.218	0.43
PRR14L_Q5THK1_1503_AQDPSSAGCDQIHGAFAK (UniProt Q5THK1)	-0.388	-1.59
PRKAR1A_P10644_18_SLRECELYVQK (UniProt P10644)	-0.355	-0.803
PRMT1_Q99873_119_KVIGIECSSISDYAVK (UniProt Q99873)	0.0774	-0.48
PRKAR1A_P10644_18_ECELYVQK (UniProt P10644)	-0.286	-0.532
PRMT1_Q99873_103_DKVVLDVGSGTGILCMFAAK (UniProt Q99873)	-0.168	-0.709
PRPF6_O94906_837_KCEHDPHVLLAVAK (UniProt O94906)	-0.315	0.18
